Experimental data taken from US4812442A, “Tripeptide renin inhibitors” (priority 1987, dated 1989).
Part of at least one peptide drawing is inferred or uncertain, most often the ends.

Molecular target: T1, renin (Homo sapiens, UniProt P00797)
T1 sequence (P00797 67-406): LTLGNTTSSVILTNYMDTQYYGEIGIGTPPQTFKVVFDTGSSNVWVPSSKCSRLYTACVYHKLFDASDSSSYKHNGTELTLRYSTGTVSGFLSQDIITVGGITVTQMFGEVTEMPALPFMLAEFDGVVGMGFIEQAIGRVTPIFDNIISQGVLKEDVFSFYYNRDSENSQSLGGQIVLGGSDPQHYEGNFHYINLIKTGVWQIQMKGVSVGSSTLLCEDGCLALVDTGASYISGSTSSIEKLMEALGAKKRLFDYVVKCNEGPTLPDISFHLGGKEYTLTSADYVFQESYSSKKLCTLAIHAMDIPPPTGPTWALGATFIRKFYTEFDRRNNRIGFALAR
Assay: Renin inhibition IC50 (methods of J. Med. Chem., 1985, 28, 1789-1790)
Format: biochemical
Description: The following examples are intended to be representative and not limiting. IC50 results were obtained according to the methods described in J. Med. Chem., 1985, 28, 1789-1790.

Compound: CC(C)C[C@@H](C=CCCc1ccccc1)NC(=O)C[C@H](O)[C@H](CC(C)C)NC(=O)[C@H](Cc1c[nH]cn1)NC(=O)[C@H](Cc1ccccc1)NC(=O)OC(C)(C)C [Example 16]
- IC50: 20 nM
